Values from PubChem BioAssay AID1224830 (NIAID, 2016)

- Purpose: 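Host factors that control LPS-induced TNF expression in human macrophages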 (primary screen)
- System: human THP-1 monocytic leukaemia cells, TNF dual-luciferase reporter clone, PMA-differentiated to macrophage-like cells
- Reagents: siRNA pool against human genes, 50 nM
- Timing: LPS for 4 h, given about 3 days after siRNA transfection
- Conditions: bacterial LPS (TLR4 ligand), 10 ng/ml
- Detection: 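TNF firefly reporter luminescence divided by renilla, normalised to the plate median, then turned into a robust z-score for each replicate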
- Direction: TNF reporter robust z-score: higher = stronger TNF reporter response to LPS
- Hit rule: 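a well is active when its z-score exceeds 2.8 or falls below -1.5; control wells carry no call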
In all, the deposit lists about 18,000 reagents; shown is an unselected part. About 2,900 of them (16%) count as active. 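Calls are made per well; low scores hint the gene aids the LPS response, high scores that it dampens it.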 Repeated entries: four replicate wells of each siRNA pool.

The opening 4 entries, to show the layout:
Target gene | PubChem SID | TNF reporter robust z-score | outcome
CATSPERE (GeneID 257044) | SID315463545 | -0.88 | inactive
CATSPERE (GeneID 257044) | SID315463545 | 0.12 | inactive
CATSPERE (GeneID 257044) | SID315463545 | 0.43 | inactive
CATSPERE (GeneID 257044) | SID315463545 | -0.26 | inactive

The listing, repeating the preview:
Target gene | PubChem SID | TNF reporter robust z-score | outcome
CATSPERE (GeneID 257044) | SID315463545 | -0.88 | inactive
CATSPERE (GeneID 257044) | SID315463545 | 0.12 | inactive
CATSPERE (GeneID 257044) | SID315463545 | 0.43 | inactive
CATSPERE (GeneID 257044) | SID315463545 | -0.26 | inactive
SPATA20 (GeneID 64847) | SID315459020 | -0.66 | inactive
SPATA20 (GeneID 64847) | SID315459020 | 0.23 | inactive
SPATA20 (GeneID 64847) | SID315459020 | -0.24 | inactive
SPATA20 (GeneID 64847) | SID315459020 | -0.23 | inactive
GNPTG (GeneID 84572) | SID315460413 | -0.23 | inactive
GNPTG (GeneID 84572) | SID315460413 | 1.12 | inactive
GNPTG (GeneID 84572) | SID315460413 | -0.13 | inactive
GNPTG (GeneID 84572) | SID315460413 | 0.92 | inactive
LMAN1 (GeneID 3998) | SID315449780 | 2.94 | active
LMAN1 (GeneID 3998) | SID315449780 | 1.56 | inactive
LMAN1 (GeneID 3998) | SID315449780 | 0.43 | inactive
LMAN1 (GeneID 3998) | SID315449780 | -0.04 | inactive
IFI27L2 (GeneID 83982) | SID315460145 | -0.54 | inactive
IFI27L2 (GeneID 83982) | SID315460145 | -0.51 | inactive
IFI27L2 (GeneID 83982) | SID315460145 | -1.09 | inactive
IFI27L2 (GeneID 83982) | SID315460145 | -0.77 | inactive
LGI2 (GeneID 55203) | SID315457492 | -0.93 | inactive
LGI2 (GeneID 55203) | SID315457492 | -0.91 | inactive
LGI2 (GeneID 55203) | SID315457492 | -1.17 | inactive
LGI2 (GeneID 55203) | SID315457492 | -1.28 | inactive
NAPG (GeneID 8774) | SID315452809 | 2.99 | active
NAPG (GeneID 8774) | SID315452809 | 3.24 | active
NAPG (GeneID 8774) | SID315452809 | 1.06 | inactive
NAPG (GeneID 8774) | SID315452809 | 1.03 | inactive
C19orf25 (GeneID 148223) | SID315462369 | 1.91 | inactive
C19orf25 (GeneID 148223) | SID315462369 | 1.6 | inactive
C19orf25 (GeneID 148223) | SID315462369 | 0.77 | inactive
C19orf25 (GeneID 148223) | SID315462369 | 1.28 | inactive
EXOC3 (GeneID 11336) | SID315454768 | -0.65 | inactive
EXOC3 (GeneID 11336) | SID315454768 | -0.69 | inactive
EXOC3 (GeneID 11336) | SID315454768 | 0.19 | inactive
EXOC3 (GeneID 11336) | SID315454768 | -0.06 | inactive
FAM220A (GeneID 84792) | SID315460502 | 2.28 | inactive
FAM220A (GeneID 84792) | SID315460502 | 0.27 | inactive
FAM220A (GeneID 84792) | SID315460502 | 1.37 | inactive
FAM220A (GeneID 84792) | SID315460502 | -0.58 | inactive
ATRAID (GeneID 51374) | SID315456679 | -0.22 | inactive
ATRAID (GeneID 51374) | SID315456679 | 0.2 | inactive
ATRAID (GeneID 51374) | SID315456679 | 0.26 | inactive
ATRAID (GeneID 51374) | SID315456679 | 1.4 | inactive
DEFB105B (GeneID 504180) | SID315465023 | -0.23 | inactive
DEFB105B (GeneID 504180) | SID315465023 | -0.57 | inactive
DEFB105B (GeneID 504180) | SID315465023 | -0.28 | inactive
DEFB105B (GeneID 504180) | SID315465023 | 0.12 | inactive
MAP4K3 (GeneID 8491) | SID315452596 | 0.71 | inactive
MAP4K3 (GeneID 8491) | SID315452596 | -0.46 | inactive
MAP4K3 (GeneID 8491) | SID315452596 | 0.6 | inactive
MAP4K3 (GeneID 8491) | SID315452596 | 0.79 | inactive
ARF4 (GeneID 378) | SID315447385 | -1.33 | inactive
ARF4 (GeneID 378) | SID315447385 | -0.08 | inactive
ARF4 (GeneID 378) | SID315447385 | -0.85 | inactive
ARF4 (GeneID 378) | SID315447385 | -0.23 | inactive
IRAK1 (GeneID 3654) | SID315449527 | -1.2 | inactive
IRAK1 (GeneID 3654) | SID315449527 | -0.88 | inactive
IRAK1 (GeneID 3654) | SID315449527 | -0.75 | inactive
IRAK1 (GeneID 3654) | SID315449527 | 0.31 | inactive
BTBD3 (GeneID 22903) | SID315454861 | -0.18 | inactive
BTBD3 (GeneID 22903) | SID315454861 | -0.21 | inactive
BTBD3 (GeneID 22903) | SID315454861 | 0.04 | inactive
BTBD3 (GeneID 22903) | SID315454861 | -0.22 | inactive
USH1C (GeneID 10083) | SID315453804 | 0.38 | inactive
USH1C (GeneID 10083) | SID315453804 | 0.96 | inactive
USH1C (GeneID 10083) | SID315453804 | 1.11 | inactive
USH1C (GeneID 10083) | SID315453804 | 0.82 | inactive
IGFBP5 (GeneID 3488) | SID315449438 | -0.51 | inactive
IGFBP5 (GeneID 3488) | SID315449438 | -0.88 | inactive
IGFBP5 (GeneID 3488) | SID315449438 | 0.32 | inactive
IGFBP5 (GeneID 3488) | SID315449438 | 1.31 | inactive
AMY1A (GeneID 276) | SID315447306 | 0.3 | inactive
AMY1A (GeneID 276) | SID315447306 | 0.82 | inactive
AMY1A (GeneID 276) | SID315447306 | 0.44 | inactive
AMY1A (GeneID 276) | SID315447306 | 0.54 | inactive
FAM153A (GeneID 285596) | SID315463861 | 0.29 | inactive
FAM153A (GeneID 285596) | SID315463861 | 0.02 | inactive
FAM153A (GeneID 285596) | SID315463861 | 0.46 | inactive
FAM153A (GeneID 285596) | SID315463861 | -0.29 | inactive
MC4R (GeneID 4160) | SID315449902 | -0.69 | inactive
MC4R (GeneID 4160) | SID315449902 | -0.6 | inactive
MC4R (GeneID 4160) | SID315449902 | -0.83 | inactive
MC4R (GeneID 4160) | SID315449902 | 2.11 | inactive
RNF139 (GeneID 11236) | SID315454707 | -1.26 | inactive
RNF139 (GeneID 11236) | SID315454707 | -0.48 | inactive
RNF139 (GeneID 11236) | SID315454707 | -1.28 | inactive
RNF139 (GeneID 11236) | SID315454707 | 0.08 | inactive
C4orf33 (GeneID 132321) | SID315461921 | -0.74 | inactive
C4orf33 (GeneID 132321) | SID315461921 | -0.09 | inactive
C4orf33 (GeneID 132321) | SID315461921 | 0.31 | inactive
C4orf33 (GeneID 132321) | SID315461921 | -0.17 | inactive
PRKX (GeneID 5613) | SID315450837 | -1.44 | inactive
PRKX (GeneID 5613) | SID315450837 | -1.71 | active
PRKX (GeneID 5613) | SID315450837 | -1.41 | inactive
PRKX (GeneID 5613) | SID315450837 | -1.69 | active
SLC35G5 (GeneID 83650) | SID315460047 | 0.43 | inactive
SLC35G5 (GeneID 83650) | SID315460047 | 0.65 | inactive
SLC35G5 (GeneID 83650) | SID315460047 | -0.69 | inactive
SLC35G5 (GeneID 83650) | SID315460047 | 0 | inactive
TFAP2E (GeneID 339488) | SID315464040 | -0.55 | inactive
TFAP2E (GeneID 339488) | SID315464040 | -0.91 | inactive
TFAP2E (GeneID 339488) | SID315464040 | 0.19 | inactive
TFAP2E (GeneID 339488) | SID315464040 | -0.46 | inactive
HTR7 (GeneID 3363) | SID315449372 | -0.4 | inactive
HTR7 (GeneID 3363) | SID315449372 | -0.28 | inactive
HTR7 (GeneID 3363) | SID315449372 | -0.45 | inactive
HTR7 (GeneID 3363) | SID315449372 | 1.21 | inactive
STC1 (GeneID 6781) | SID315451678 | 0.98 | inactive
STC1 (GeneID 6781) | SID315451678 | 0.78 | inactive
STC1 (GeneID 6781) | SID315451678 | 1.83 | inactive
STC1 (GeneID 6781) | SID315451678 | -1.07 | inactive
